Laboratory results: PubChem BioAssay AID493246 (Drosophila RNAi Screening Center, 2011)
Purpose: 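Identify essential fly genes by loss of cell viability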 (primary screen). Cells: Drosophila Kc and S2R+ cells. Reagent: long dsRNA against Drosophila genes. Detection: 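Cell number per well after knock-down, printed as raw plate values; calls were based on per-plate z-scores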. Direction: Kc cell number and S2R+ cell number: higher = more cells remaining. Call rule: 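Active when the per-plate z-score of cell number is 3 or more in the direction of fewer cells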.
In all, the deposit lists about 21,000 reagents; below is an unselected part of those that have a named target and a result. Over the whole deposit, 429 (2%) are marked active. 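Values are raw and not normalised between plates; calls rest on per-plate z-scores that were not deposited.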 Names joined by + are all predicted targets of the reagent. Not given: the amount of reagent, the time to read-out.

target | dsRNA | Kc cell number, rep 1 | Kc cell number, rep 2 | S2R+ cell number, rep 1 | S2R+ cell number, rep 2 | Call
CG6567 | DRSC16066 | 1.43e6 | 1.50e6 | 1.33e6 | 1.37e6 | inactive
ear | DRSC15675 | 1.56e6 | 1.65e6 | 1.28e6 | 1.34e6 | inactive
crp | DRSC03515 | 1.72e6 | 1.78e6 | 1.01e6 | 1.19e6 | inactive
Cyp308a1 | DRSC20238 | 1.50e6 | 1.59e6 | 1.05e6 | 1.11e6 | inactive
Mdh1 (retired record) | DRSC02846 | 1.82e6 | 1.85e6 | 1.17e6 | 1.34e6 | inactive
Zasp66 | DRSC08932 | 1.38e6 | 1.45e6 | 1.09e6 | 1.27e6 | inactive
Zasp66 | DRSC10631 | 1.49e6 | 1.50e6 | 1.23e6 | 1.19e6 | inactive
Zasp66 | DRSC10632 | 1.40e6 | 1.41e6 | 1.16e6 | 1.20e6 | inactive
Spt-I | DRSC06860 | 1.68e6 | 1.69e6 | 1.23e6 | 1.24e6 | inactive
Ccp84Ad | DRSC12589 | 1.40e6 | 1.31e6 | 9.43e5 | 1.11e6 | inactive
CG9427 | DRSC16490 | 1.74e6 | 1.84e6 | 1.28e6 | 1.39e6 | inactive
HLH54F | DRSC07438 | 1.68e6 | 1.64e6 | 1.33e6 | 1.50e6 | inactive
CG4318 | DRSC19887 | 1.59e6 | 1.55e6 | 1.07e6 | 1.17e6 | inactive
p24-1 | DRSC19827 | 1.53e6 | 1.48e6 | 9.22e5 | 1.01e6 | inactive
CG10467 | DRSC09728 | 1.51e6 | 1.25e6 | 1.08e6 | 1.20e6 | inactive
CG3342 | DRSC18304 | 5.81e5 | – | 9.10e5 | – | inactive
CG5704 | DRSC08572 | 1.37e6 | 1.47e6 | 1.25e6 | 1.25e6 | inactive
Mettl3 | DRSC15921 | 1.51e6 | 1.49e6 | 9.50e5 | 1.07e6 | inactive
Hrb27C | DRSC03347 | 1.40e6 | 1.44e6 | 6.67e5 | 7.44e5 | inactive
Non3 | DRSC16359 | 1.60e6 | 1.65e6 | 1.15e6 | 1.22e6 | inactive
Mccc2 | DRSC04987 | 1.63e6 | 1.69e6 | 1.39e6 | 1.45e6 | inactive
CG33489 | DRSC10588 | 1.31e6 | 1.42e6 | 1.34e6 | 1.35e6 | inactive
Ada1-1 + Ada1-2 | DRSC01220 | 1.76e6 | 1.77e6 | 1.10e6 | 1.28e6 | inactive
Ada1-1 + Ada1-2 | DRSC01222 | 1.42e6 | 1.49e6 | 9.79e5 | 1.15e6 | inactive
Or49b | DRSC07494 | 1.66e6 | 1.64e6 | 1.35e6 | 1.49e6 | inactive
tay | DRSC20142 | 5.43e5 | – | 8.84e5 | – | inactive
Neu2 | DRSC11819 | 1.44e6 | 1.41e6 | 1.29e6 | 1.40e6 | inactive
fne | DRSC20332 | 1.29e6 | 1.26e6 | 7.93e5 | 8.99e5 | inactive
CG32189 | DRSC09511 | 1.56e6 | 1.68e6 | 1.14e6 | 1.34e6 | inactive
CG11703 | DRSC14356 | 1.54e6 | 1.63e6 | 1.07e6 | 1.14e6 | inactive
Sfp53D | DRSC05625 | 6.14e5 | – | 7.03e5 | – | inactive
bnk | DRSC16912 | 1.50e6 | 1.60e6 | 1.08e6 | 1.19e6 | inactive
CG12935 | DRSC06248 | 1.34e6 | 1.41e6 | 1.15e6 | 1.27e6 | inactive
side-VI | DRSC12828 | 1.67e6 | 1.64e6 | 1.12e6 | 1.38e6 | inactive
side-VI | DRSC12830 | 1.74e6 | 1.79e6 | 1.16e6 | 1.43e6 | inactive
side-VI | DRSC14920 | 1.45e6 | 1.59e6 | 1.36e6 | 1.47e6 | inactive
side-VI | DRSC15624 | 1.54e6 | 1.63e6 | 1.35e6 | 1.35e6 | inactive
Acox57D-p | DRSC04560 | 1.39e6 | 1.47e6 | 1.19e6 | 1.27e6 | inactive
CG17715 | DRSC11950 | 1.54e6 | 1.70e6 | 1.45e6 | 1.51e6 | inactive
Su(var)3-9 | DRSC14484 | 1.64e6 | 1.63e6 | 1.19e6 | 1.24e6 | inactive

Part of the list above, reformatted.
target	dsRNA	Kc cell number, rep 1	Kc cell number, rep 2	S2R+ cell number, rep 1	S2R+ cell number, rep 2	Call
CG33489	DRSC10588	1.31e6	1.42e6	1.34e6	1.35e6	inactive
Ada1-1 + Ada1-2	DRSC01220	1.76e6	1.77e6	1.10e6	1.28e6	inactive
